The source of these data is article PMC4945028.

Protein sequences, listed by entry. Tags and fused reporters are not part of them. Lines headed by an entry give the natural chain unless they say otherwise; changes in a name come on top.
UniProt Q9V9N4: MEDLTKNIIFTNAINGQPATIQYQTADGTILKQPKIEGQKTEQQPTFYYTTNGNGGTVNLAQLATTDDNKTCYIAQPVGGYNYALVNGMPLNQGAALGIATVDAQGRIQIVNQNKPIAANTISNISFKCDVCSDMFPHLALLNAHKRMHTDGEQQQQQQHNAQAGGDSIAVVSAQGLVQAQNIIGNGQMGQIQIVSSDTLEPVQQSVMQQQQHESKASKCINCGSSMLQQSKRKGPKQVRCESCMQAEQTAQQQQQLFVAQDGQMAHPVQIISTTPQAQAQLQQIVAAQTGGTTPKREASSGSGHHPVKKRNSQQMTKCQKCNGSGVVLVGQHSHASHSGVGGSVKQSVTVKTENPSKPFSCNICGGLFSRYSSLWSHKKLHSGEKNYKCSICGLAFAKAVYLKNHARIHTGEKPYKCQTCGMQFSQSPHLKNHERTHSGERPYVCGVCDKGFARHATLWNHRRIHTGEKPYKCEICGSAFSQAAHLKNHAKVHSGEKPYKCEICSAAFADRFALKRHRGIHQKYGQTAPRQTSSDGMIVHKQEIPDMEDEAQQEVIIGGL

Data set [1] has as its target MBP-CLAMP 6ZF (Drosophila melanogaster) (UniProt Q9V9N4). The data set is described as follows: competition with a labelled probe. To be noted: labeled High affinity probe, EMSA: LightShift chemiluminescent kit, 1 ug/uL poly(dI-dC), 5 mM Tris-HCl pH 8.5 elution buffer, salt and temperature not stated, recombinant protein, protein details: N-terminal MBP (pMAL-c5X). For orientation: A gel shift assay detects complexes by their altered migration in electrophoresis.

Data set [2] has the same target. Nature of the data set: EMSA. The note with it: poly(dI-dC), EMSA: LightShift chemiluminescent kit, 1 ug/uL poly(dI-dC), 5 mM Tris-HCl pH 8.5 elution buffer, salt and temperature not stated, recombinant protein, protein details: N-terminal MBP (pMAL-c5X), label: 3' biotin on each strand.

Construct, isoform or probe ends are uncertain for at least one entry. A negative result means that nothing was seen under these conditions.

For the sequence “CGGGCCAGCTGCTGTCTCGCTCGCACCCGCACCGCT (double strand) [High affinity competitor]”, in data set [1], the binding result is given as “binds”.
In the case of “CGGGCCAGCTGCTGTCTCGCTCGCACCCGCACCGCT (double strand) [High affinity]”, the binding result in data set [2] is “binds”.
Take “CTACTATAGCAATGGGAGCGAGAAGTATCAGTCAGT (double strand)”: the binding result in data set [1] (does not compete, text says High affinity competes better) was “no binding”.
For the sequence “GTATTGTTTATTTATGTAATTATAATGAGAGAGATATTGTTTATTTATTAATGTATAATT (double strand) [Four-repeat]”, the binding result in data set [2] (no increase in shifted signal) is “no binding”.
Consider “TGTTTATTTATGTAATTATAATGAGAGAGAGAGAGAGATATTGTTTATTTATTAATGTAT (double strand) [Eight-repeat]”, for which the binding result in data set [2] is given as “binds”.
As for “TTATGTAATTATAATGAGAGAGAGAGAGAGAGAGAGAGAGAGAGATATTGTTTATTTATT (double strand) [Fifteen-repeat]”, the binding result in data set [2] (single shifted species) is listed as “binds”.
For the sequence “TTTATTTATGTAATTATAATGAGAGAGAGAGAGAGAGAGATATTGTTTATTTATTAATGT (double strand) [Ten-repeat]”, the binding result in data set [2] was “binds”.
